The text below walks through data of US8431396.

By UniProt entry, the sequences of proteins in these tests, tags left out. Where a name states a change or a piece, a line headed by the entry shows the natural chain unless it says otherwise. Residues count along the entry.
UniProt P35968: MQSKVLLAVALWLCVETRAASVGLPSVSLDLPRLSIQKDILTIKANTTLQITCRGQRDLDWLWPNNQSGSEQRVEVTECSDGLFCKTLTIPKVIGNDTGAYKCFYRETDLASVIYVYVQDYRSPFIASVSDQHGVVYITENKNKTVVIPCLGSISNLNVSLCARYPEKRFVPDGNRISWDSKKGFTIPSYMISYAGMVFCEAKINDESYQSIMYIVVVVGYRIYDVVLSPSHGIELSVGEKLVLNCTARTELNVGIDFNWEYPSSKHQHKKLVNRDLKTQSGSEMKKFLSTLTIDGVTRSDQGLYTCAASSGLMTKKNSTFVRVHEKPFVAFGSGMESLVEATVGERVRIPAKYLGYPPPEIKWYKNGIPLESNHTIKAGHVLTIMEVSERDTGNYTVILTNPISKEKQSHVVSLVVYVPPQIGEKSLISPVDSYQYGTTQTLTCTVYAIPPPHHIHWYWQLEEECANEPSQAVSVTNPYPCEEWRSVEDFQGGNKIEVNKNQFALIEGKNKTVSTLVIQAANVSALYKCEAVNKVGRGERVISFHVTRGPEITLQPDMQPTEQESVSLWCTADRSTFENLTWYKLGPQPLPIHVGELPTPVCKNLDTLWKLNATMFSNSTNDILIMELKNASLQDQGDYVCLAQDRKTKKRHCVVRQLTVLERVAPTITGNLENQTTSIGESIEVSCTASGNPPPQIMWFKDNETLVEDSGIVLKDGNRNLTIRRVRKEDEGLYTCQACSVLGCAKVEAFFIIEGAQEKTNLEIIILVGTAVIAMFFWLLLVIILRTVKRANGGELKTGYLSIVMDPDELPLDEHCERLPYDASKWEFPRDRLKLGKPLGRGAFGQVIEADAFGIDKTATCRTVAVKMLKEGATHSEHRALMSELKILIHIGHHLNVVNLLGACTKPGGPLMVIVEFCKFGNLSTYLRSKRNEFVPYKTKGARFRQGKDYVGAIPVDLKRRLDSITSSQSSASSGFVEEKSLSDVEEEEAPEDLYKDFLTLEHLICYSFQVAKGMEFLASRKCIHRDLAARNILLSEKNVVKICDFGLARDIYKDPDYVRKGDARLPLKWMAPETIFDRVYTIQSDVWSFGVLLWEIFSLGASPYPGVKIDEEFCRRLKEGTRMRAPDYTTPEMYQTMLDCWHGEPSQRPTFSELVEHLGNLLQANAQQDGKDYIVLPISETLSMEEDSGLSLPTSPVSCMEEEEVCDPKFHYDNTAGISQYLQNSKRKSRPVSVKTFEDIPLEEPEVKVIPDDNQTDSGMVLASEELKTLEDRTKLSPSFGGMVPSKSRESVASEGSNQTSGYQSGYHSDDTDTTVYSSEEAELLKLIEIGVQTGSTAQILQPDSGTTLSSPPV
KDR (VEGFR2) on the surface of PAE-KDR cells: residues 20-1356 of P35968
soluble KDR-IgG (receptor IgG chimeric protein): residues 20-764 of P35968

The target of test [1] is soluble KDR-IgG (receptor IgG chimeric protein) (UniProt P35968). Put plainly: cross-linking, SDS-PAGE and autoradiography.
Test [2] has the same target. The experiment in a line: cross-linking, SDS-PAGE and autoradiography (figure legend).
Test [3] has the same target. Put plainly: in vitro cross-linking.
The target in test [4] is endogenous KDR in extracts of human placenta (human) (UniProt P35968). Put plainly: co-immunoprecipitation from human placenta (figure legend).
Test [5] has the same target. Put plainly: co-immunoprecipitation from extracts of human placenta.
Test [6] deals with KDR (VEGFR2) on the surface of PAE-KDR cells (human) (UniProt P35968). The experiment in a line: co-immunoprecipitation from lysates of PAE-KDR-TIMP3 cells.

These are yes or no findings as the source states them, for the method shown. For part of these data: Binding seen in cells or lysates may run through a third protein. Some results given as binding are weak or reduced against the parent protein; the word gives no strength. For part of these data: Tags and fused reporters may be left off the sequences shown.

B1: recombinant human TIMP3 (tissue inhibitor of metalloproteinases-3) (protein)
chain: CTCSPSHPQDAFCNSDIVIRAKVVGKKLVKEGPFGTLVYTIKQMKMYRGFTKMPHVQYIHTEASESLCGLKLEVNKYQYLLTGRVYDGKMYTGLCNFVERWDQLTLSQRKGLNYRYHLGCNCKIKSCYYLPCFVTSKNECLWTDMLSNFGYPGYQSKHYACIRQKGGYCSWYRGWAPPDKSIINATDP
In the case of B1, the binding entry in test [1], in test [2] and in test [3] was “binds” each time.

B2: endogenous TIMP3 in extracts of human placenta (protein, UniProt P35625 24-211, looked up)
chain: CTCSPSHPQDAFCNSDIVIRAKVVGKKLVKEGPFGTLVYTIKQMKMYRGFTKMPHVQYIHTEASESLCGLKLEVNKYQYLLTGRVYDGKMYTGLCNFVERWDQLTLSQRKGLNYRYHLGCNCKIKSCYYLPCFVTSKNECLWTDMLSNFGYPGYQSKHYACIRQKGGYCSWYRGWAPPDKSIINATDP
In the case of B2, the binding result in test [4] and in test [5] was “binds” throughout.

B3: TIMP3 with C-terminal FLAG epitope, stably expressed in PAE-KDR-TIMP3 and PAE-PDGFR-β-TIMP3 cells (protein)
chain: CTCSPSHPQDAFCNSDIVIRAKVVGKKLVKEGPFGTLVYTIKQMKMYRGFTKMPHVQYIHTEASESLCGLKLEVNKYQYLLTGRVYDGKMYTGLCNFVERWDQLTLSQRKGLNYRYHLGCNCKIKSCYYLPCFVTSKNECLWTDMLSNFGYPGYQSKHYACIRQKGGYCSWYRGWAPPDKSIINATDPDYKDDDK
As to B3, the binding result in test [6] is listed as “binds”.
